Test results: paper PMC12203999
These are yes or no findings as the source states them, for the method shown. In cells and extracts the contact can be indirect. Some entries that bind do so weakly or less than the wild type. For part of these data: Tags and fused reporters may be left off the sequences shown. Values belong to the binder of their own block, whether it stands above or below them.

How the values were obtained:
[1] = target: T1, mitochondrial pyruvate carrier 1 (MPC1), endogenous in primary rat PASMCs (rat (endogenous in primary rat PASMCs)) (UniProt P63031); assay: co-IP; primary PASMC lysate supernatants incubated overnight at 4°C with 2 μg of LONP1 or MPC1 antibody or control IgG, protein A/G beads 2 hours at room temperature, Western blot
T1 sequence: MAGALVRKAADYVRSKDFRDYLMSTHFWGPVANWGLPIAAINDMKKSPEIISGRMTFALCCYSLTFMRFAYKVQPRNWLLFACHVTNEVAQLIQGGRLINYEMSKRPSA

[2] = target: T2, Lon protease 1 (LONP1), endogenous in primary rat PASMCs (rat (endogenous in primary rat PASMCs)) (UniProt Q924S5); assay: as above
T2 sequence: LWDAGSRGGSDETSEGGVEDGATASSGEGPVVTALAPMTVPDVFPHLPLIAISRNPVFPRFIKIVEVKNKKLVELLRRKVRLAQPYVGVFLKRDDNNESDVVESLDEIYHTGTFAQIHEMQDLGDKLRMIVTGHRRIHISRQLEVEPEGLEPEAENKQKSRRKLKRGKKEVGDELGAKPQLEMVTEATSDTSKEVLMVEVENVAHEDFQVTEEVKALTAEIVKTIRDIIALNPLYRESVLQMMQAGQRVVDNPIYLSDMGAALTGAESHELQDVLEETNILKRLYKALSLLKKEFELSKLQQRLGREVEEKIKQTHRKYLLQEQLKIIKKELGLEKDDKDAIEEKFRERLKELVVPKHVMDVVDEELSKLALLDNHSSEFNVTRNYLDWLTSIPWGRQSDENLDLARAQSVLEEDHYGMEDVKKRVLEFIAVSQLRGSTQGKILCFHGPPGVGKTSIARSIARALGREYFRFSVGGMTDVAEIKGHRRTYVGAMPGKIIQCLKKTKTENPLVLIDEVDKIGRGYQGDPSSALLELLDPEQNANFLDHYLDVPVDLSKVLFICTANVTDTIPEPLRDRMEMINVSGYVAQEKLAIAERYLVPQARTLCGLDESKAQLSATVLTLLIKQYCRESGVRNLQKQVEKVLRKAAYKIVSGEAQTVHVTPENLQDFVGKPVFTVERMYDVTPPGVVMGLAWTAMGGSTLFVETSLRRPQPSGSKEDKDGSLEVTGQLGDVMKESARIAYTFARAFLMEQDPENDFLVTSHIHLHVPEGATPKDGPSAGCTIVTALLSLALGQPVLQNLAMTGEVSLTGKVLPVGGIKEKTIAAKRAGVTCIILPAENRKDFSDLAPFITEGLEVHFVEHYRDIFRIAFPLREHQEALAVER

[3] = target: T3, recombinant GST-LONP1 (UniProt Q924S5); assay: pull-down; 200 μg GST or GST-LONP1 on 30 μl glutathione magnetic beads (bait), PASMC lysate supernatant added overnight at 4°C (prey MPC1), eluted, Western blot; only the target purified
T3 sequence: T2 sequence

binding [1]: binds
B1: Lon protease 1 (LONP1), endogenous in primary rat PASMCs (enzyme, UniProt Q924S5 66-950)
chain: T2 sequence

binding [2]: binds
binding [3]: binds
B2: mitochondrial pyruvate carrier 1 (MPC1), endogenous in primary rat PASMCs (protein, UniProt P63031 1-109)
chain: T1 sequence
